Laboratory results published in patent US9670550B2, “Method for examination of carcinogenic risk” (JAPANESE FOUNDATION FOR CANCER RESEARCH, priority 2013, dated 2017).
For at least one compound, name, drawing or mass did not settle the structure.

Tests used:
hepatic stellate cells [1] = experiment: Immunostaining of senescence marker and SASP factors in hepatic stellate cells of mice given deoxycholic acid; format: in vivo; details: deoxycholic acid administration group vs control group; immunostaining (FIG. 5D)
hepatic stellate cells [2] = experiment: Cultured hepatic stellate cells treated with deoxycholic acid; format: cell-based; details: 200 μM, data not shown

C[C@H](CCC(=O)O)[C@H]1CC[C@H]2[C@@H]3CC[C@@H]4C[C@H](O)CC[C@]4(C)[C@H]3C[C@H](O)[C@]12C [deoxycholic acid]
expression of SASP factor Gro-α in hepatic stellate cells (hepatic stellate cells [1]): expressed | expression of SASP factor IL-1β in hepatic stellate cells (hepatic stellate cells [1]): expressed | expression of SASP factor IL-6 in hepatic stellate cells (hepatic stellate cells [1]): expressed | expression of p21 in hepatic stellate cells (hepatic stellate cells [1]): expressed | expression of SASP-related factors (hepatic stellate cells [2]): confirmed | reactive oxygen species (ROS) causing senescence (hepatic stellate cells [2]): increase
